Laboratory results from PubChem BioAssay AID504444 (National Center for Advancing Translational Sciences (NCATS), 2011).
The campaign covered roughly 360,000 compounds. About 7,500 (2.1%) were called active. This list was built around the results that the source calls inconclusive (neither active nor inactive); the mix of calls is not that of the screen. The call rests on the fitted dose curve; in most records, active means well fitted inhibition curve with a large enough effect; inconclusive means small, poorly fitted or top-dose-only effect, or effect the other way; inactive means flat fitted curve, though single readings scatter. Where the call is inconclusive, the potency comes from a doubtful curve fit.

test: Nrf2 qHTS screen for inhibitors; conditions: A549 ARE-Fluc reporter, luciferase luminescence, 18-24 h; series mostly up to 46 µM; further: nearly all actives have a fitted effect of over 60% in size
How it was run: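 Two sequential reads on A549 ARE_Fluc cells exposed to compound for 18-24 h: a CellTiter-Fluor fluorescence read for viability, then a luciferase luminescence read for Nrf2/ARE activity.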
Potency means the concentration at half of the fitted maximal effect.

Structure (SMILES)	Potency
CNc1oc(-c2ccc(Cl)cc2)nc1C#N	inconclusive: 14.6 µM [activator, single point]
CCOc1ccccc1NC(=O)C1CCN(S(=O)(=O)Cc2ccccc2)CC1	active: 23.1 µM
COc1cccc2c(Cl)c(CC=C(Cl)Cl)c(C)nc12	inconclusive: 10.3 µM [falling, partial curve, poor fit]
O=C(Nc1cc(C(F)(F)F)ccc1Cl)[C@H](O)CCc1ccccc1	active: 25.9 µM
COc1cc(C(=O)OCC(=O)NC2CCCC2)cc(NC(=O)c2ccco2)c1OC	inactive
Clc1ccc(OCCn2cnc3ccccc32)c(Cl)c1	inconclusive: 29.1 µM [falling, single point]
N/C(COc1cccc(C(F)(F)F)c1)=N\NC(=O)c1cccnc1Oc1ccccc1	inconclusive: 11.6 µM [falling, partial curve, poor fit]
COc1ccc(-c2[nH]c(-c3ccccc3)nc2SCC(=O)Nc2ccc3c(c2)OCO3)cc1	inconclusive: 29.1 µM [falling, single point]
CCn1c(CN2CCCCC2)nc2cc(NC(=O)COc3ccc([N+](=O)[O-])cc3)ccc21	inconclusive: 6.51 µM [falling, full curve, poor fit]
CCC(=O)NC(c1ccc(Cl)cc1Cl)c1ccc2cccnc2c1O (stereo unspecified)	inconclusive: 29.1 µM [falling, single point]
O=[N+]([O-])c1nn(-c2ccc3c(c2)OCCO3)n(O)c1=NC1CCCCCC1	inactive
Fc1c(-c2ccc3ncnc(NCc4cccs4)c3c2)ccc2c1OCO2	inconclusive: 32.6 µM [falling, single point]
CCCCC(=O)Nc1ccc(C(=O)NNC(=O)c2ccccc2Br)cc1	inconclusive: 32.6 µM [falling, single point]
N#Cc1ccc(OCC(=O)NCC2(N3CCCCC3)CCCCC2)cc1	inconclusive: 29.1 µM [falling, single point]
Cn1ccs/c1=N\C(=O)Nc1cccc(C(F)(F)F)c1	inactive
CSc1nc(N)c2c3c(sc2n1)CN(C)CC3	inconclusive: 14.6 µM [falling, partial curve]
CC(NC(=O)c1ccc(N2Cc3ccccc3Oc3ncccc32)s1)c1ccccc1 (stereo unspecified)	inconclusive: 9.2 µM [falling, single point]
O=C(Nc1cccc(S(=O)(=O)N2CCCCC2)c1)c1cncc(Br)c1	inconclusive: 29.1 µM [falling, partial curve, poor fit]
CCCCN(C)/C=N/c1c(C#N)cnn1-c1ccc(C)cc1	inconclusive: 9.2 µM [falling, partial curve, poor fit]
Cc1cc(-c2cccs2)c2c(N)c(C(=O)c3ccc4c(c3)OCO4)sc2n1	inconclusive: 14.6 µM [falling, partial curve, poor fit]
O=C(Nc1ccc(Cl)cc1)c1cc(S(=O)(=O)Nc2ccccn2)ccc1Cl	inconclusive: 20.6 µM [falling, single point]
CC(C)c1ccc(S(=O)(=O)N2CCC(C(=O)N3CCN(c4cccc(Cl)c4)CC3)CC2)cc1	inconclusive: 13 µM [falling, single point]

Structure (SMILES)	Potency
CCc1nccn1-c1cc(C(C)(C)C)nc2c(-c3ccc(Cl)cc3)cnn12	inconclusive: 29.1 µM [activator, single point]
N/C(=N\OC(=O)c1cc(Cl)ccc1Cl)c1cccnc1	inconclusive: 4.61 µM [activator, full curve]
O=C(NNC(=S)NCc1ccccc1)c1ccc(Br)o1	inconclusive: 0.366 µM [falling, full curve]
Clc1ccc(OCCSc2ncccn2)c(Br)c1	inconclusive: 3.66 µM [activator, full curve]
O=C(CNC(=O)c1ccco1)Nc1ccc(Br)cc1	inconclusive: 13 µM [activator, partial curve]
CC(C)c1ccc(C(=O)CSc2ncn[nH]2)cc1	inconclusive: 29.1 µM [activator, single point]
C=CCN=C1S/C(=C\c2ccc(N(C)C)cc2)C(=O)N1CC=C	inconclusive: 25.9 µM [activator, single point]
Cc1ccc2nc(SCc3cccc([N+](=O)[O-])c3)nc(C)c2c1	inactive
CCOc1ccc(C2=C(C=Nc3c(C)n(C)n(-c4ccccc4)c3=O)C(c3ccc(F)cc3)c3ccccc3O2)cc1 (stereo unspecified)	inconclusive: 2.31 µM [falling, partial curve, poor fit]
Cn1c(-c2ccc(F)cc2)cnc1NCc1ccccc1F	inconclusive: 2.91 µM [activator, full curve]
CC(=O)Nc1ccc(S(=O)(=O)Nc2ccc(NC(=O)c3ccco3)cc2)cc1	inconclusive: 0.259 µM [falling, full curve, poor fit]
Cc1cc2ncn(/N=C/c3ccc([N+](=O)[O-])s3)c2cc1C	inconclusive: 4.61 µM [falling, partial curve, poor fit]
CS(=O)(=O)c1sc2nc(-c3ccccc3)cc(-c3ccccc3)c2c1N	inconclusive: 18.4 µM [falling, single point]
O=C(CN1C(=O)c2ccccc2S1(=O)=O)c1ccc(F)c(F)c1	inconclusive: 18.4 µM [falling, single point]
CCc1cccc(NCc2ccccc2-c2nnc(-c3ccccc3Cl)o2)c1	inconclusive: 4.61 µM [activator, full curve, poor fit]
Cc1ccc(-n2ncc(C#N)c2/N=C/N2CCN(C)CC2)cc1	inconclusive: 5.8 µM [activator, partial curve, poor fit]
CSc1cccc(NC(=O)C2CCN(S(=O)(=O)c3ccc4c(c3)NC(=O)CO4)CC2)c1	active: 23.1 µM
O=C(NCCCc1nc2ccccc2n1Cc1ccc(Cl)cc1)c1ccco1	inactive
CC(C)C(C)NC(=O)CSc1nnc(-c2c[nH]c3ccccc23)o1 (stereo unspecified)	inconclusive: 16.4 µM [falling, partial curve]
CCCC[C@@H](CNC)NC[C@H](NCCCCC1CCCCC1)C(C)C	inactive
O=C(Cn1c(=O)nc(-c2ccccc2)c2ccccc21)NCCCc1ccccc1	inactive
CCc1cccc(C)c1NC(=O)CSc1nnc(N)s1	inactive

A draw from above in order of formula weight, rising.
Structure (SMILES)	Potency
CSc1nc(N)c2c3c(sc2n1)CN(C)CC3	inconclusive: 14.6 µM [falling, partial curve]
N/C(COc1cccc(C(F)(F)F)c1)=N\NC(=O)c1cccnc1Oc1ccccc1	inconclusive: 11.6 µM [falling, partial curve, poor fit]
CSc1cccc(NC(=O)C2CCN(S(=O)(=O)c3ccc4c(c3)NC(=O)CO4)CC2)c1	active: 23.1 µM

Rewritten in CSV form: entries from further up.
Structure (SMILES),Potency
CSc1nc(N)c2c3c(sc2n1)CN(C)CC3,"inconclusive: 14.6 µM [falling, partial curve]"
Cn1c(-c2ccc(F)cc2)cnc1NCc1ccccc1F,"inconclusive: 2.91 µM [activator, full curve]"

Next results:

Structure (SMILES)	Potency
CCc1nnc(NC(=O)CSc2nccn2-c2ccccc2)s1	inactive
O=C(CSc1nnc(SCc2ccc(Cl)cc2)s1)N1CCOCC1	inconclusive: 29.1 µM [activator, single point]
CCOC(=O)CNC(=O)c1sc(NC(=O)c2ccccc2)nc1C	inconclusive: 29.1 µM [activator, single point]
COc1cc(/C=C2\C(=N)N3N=CSC3=NC2=O)ccc1OS(=O)(=O)c1ccccc1[N+](=O)[O-]	inconclusive: 18.4 µM [activator, partial curve, poor fit]
O=C(CCC1CCCC1)Nc1cc(Cl)ccc1N1CCOCC1	inconclusive: 18.4 µM [falling, single point]
Nc1c(C(=O)Nc2ccc(Br)cc2)sc2nc(-c3ccco3)ccc12	active: 13 µM
Cc1cccc(NC(=O)N2CCC(C(=O)c3ccc(F)cc3)CC2)c1	inconclusive: 29.1 µM [falling, single point]
Cc1csc2ncc(C(=O)Nc3ccccc3Cl)c(=O)n12	inconclusive: 0.411 µM [activator, full curve, poor fit]
O=C(NNC(=O)c1cccc2ccccc12)c1ccc2c(c1)OCO2	inconclusive: 9.2 µM [activator, partial curve]
O=c1c2ccccc2nc(-c2cccc(Cl)c2)n1O	inconclusive: 25.9 µM [falling, single point]
Cc1cc(NC(=O)CCC(=O)N(Cc2ccco2)C(C(=O)NC2CCCC2)c2ccccc2)no1 (stereo unspecified)	inconclusive: 0.13 µM [activator, full curve, poor fit]
COc1ccc(-c2cc(C(=O)NCc3ccccc3)c3c(-c4ccccc4)[nH]nc3n2)cc1	inconclusive: 29.1 µM [activator, single point]
CC1(C)CC(=O)C(N=Nc2ccc(Cl)cc2)=C(O)C1	inconclusive: 14.6 µM [activator, single point]
O=C(NNC(=O)c1ccc(SCC2CCCO2)c([N+](=O)[O-])c1)c1ccc(Cl)c([N+](=O)[O-])c1 (stereo unspecified)	inconclusive: 29.1 µM [falling, single point]
CCC(c1nnnn1Cc1ccco1)N(CCc1ccccc1)Cc1cc2ccc(OC)cc2[nH]c1=O (stereo unspecified)	inconclusive: 23.1 µM [falling, single point]
O=C(N/N=C/c1cccnc1)c1cc(-c2ccc(Br)cc2)nc2ccccc12	inactive
c1ccc(-n2ncc3c(NC4CCCCCC4)ncnc32)cc1	inconclusive: 1.16 µM [activator, full curve]
COc1ccc(C(=O)CCN2CCc3cc(OC)c(OC)cc3C2)cc1	inactive
O=C(Nc1cccc2cccnc12)c1ccc(Cl)cc1	inconclusive: 25.9 µM [activator, single point]
Cc1ccc(C)c(Cn2c(CN(C)Cc3ccccc3)nc3c2c(=O)n(C)c(=O)n3C)c1	inconclusive: 20.6 µM [falling, single point]
O=C(Nc1nc2ccccc2[nH]1)c1cc2ccccc2o1	inconclusive: 1.46 µM [activator, partial curve]
CCn1c(CN2CCOCC2)nc2cc(NC(=O)c3cc(OC)c(OC)c(OC)c3)ccc21	inconclusive: 8.2 µM [falling, partial curve, poor fit]
